Reference: paper PMC4525488, “Structure-based Mechanistic Insights into Terminal Amide Synthase in Nosiheptide-Represented Thiopeptides Biosynthesis” (Scientific Reports, 2015)
These are yes or no findings as the source states them, for the method shown. Some results given as binding are weak or reduced against the parent protein; the word gives no strength.

Target: T1, C-terminal NosA_(112-151) peptide (UniProt C6FX40)
T1 sequence: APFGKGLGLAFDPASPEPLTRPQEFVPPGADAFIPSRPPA
Experiment: NMR titration; 1H-15N HSQC of 15N-labeled NosA_(112-151) free and with unlabeled NosA_(1-111) (NosA_(1-111) : NosA_(112-151) = 1:1.2), 293 K, 50 mM Na2HPO4, 50 mM NaCl, 0.01% NaN3, pH 7.0, 10% D2O; both purified

B1: truncated NosA_(1-111) variant (domain or fragment, UniProt C6FX40 1-111, looked up)
chain: MTEHPAQQLYCTVVLWDLSRSAATVASLRAYLRDHAVDAYTTVPGLRQKTWISSTGPEGEQWGAVYLWDSPEAAYGRPPGVSKVVELIGYRPTERRYYSVEAATEGPAAAA
notes: NosA, terminal amide synthase of nosiheptide biosynthesis
- binding: binds weakly
